# Values quoted from earlier work as cited in US20230151049A1, “Compounds Useful in HIV Therapy” (priority 2020, published 2023).
# Some of these results come from one statement about several compounds together. At least one compound was matched to its structure with a doubt left.
# Tested on: M184V mutation
# Details: M184V mutation selected on a regimen containing 3TC/FTC; cited from earlier work
smiles,measurement,value
"Nc1ccn([C@@H]2CS[C@H](CO)O2)c(=O)n1 [Example 3TC, lamivudine]",reduces susceptibility to these drugs,> 100 fold
